Measured values taken from publication PMC7078148.
Results are given in words; binding and its absence hold for the method and conditions named. Some results given as binding are weak or reduced against the parent protein; the word gives no strength. Sequences can lack the tags named with a protein.

By UniProt entry, the sequences of proteins in these tests, tags left out. Residues count along the entry.
UniProt P30405, residues 30-207: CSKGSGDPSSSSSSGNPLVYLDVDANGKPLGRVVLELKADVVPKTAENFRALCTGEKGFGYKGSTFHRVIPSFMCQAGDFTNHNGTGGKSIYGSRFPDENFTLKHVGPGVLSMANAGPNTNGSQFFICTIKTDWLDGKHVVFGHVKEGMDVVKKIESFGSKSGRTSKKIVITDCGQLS

Molecular target: human full length cyclophilin D protein (His tag) (human) (UniProt P30405)
Experiment: co-IP; mix of the two recombinant proteins, 20 µg/ml each in PBS, 2 h at room temperature; precipitated with anti-17β-HSD10 or anti-cypD antibody and Protein A-sepharose; immunoblot for the other protein; both purified

binding: binds
B1: human full length recombinant 17β-hydroxysteroid dehydrogenase type 10 protein (His tag) (enzyme, UniProt Q99714 1-261)
chain: MAAACRSVKGLVAVITGGASGLGLATAERLVGQGASAVLLDLPNSGGEAQAKKLGNNCVFAPADVTSEKDVQTALALAKGKFGRVDVAVNCAGIAVASKTYNLKKGQTHTLEDFQRVLDVNLMGTFNVIRLVAGEMGQNEPDQGGQRGVIINTASVAAFEGQVGQAAYSASKGGIVGMTLPIARDLAPIGIRVMTIAPGLFGTPLLTSLPEKVCNFLASQVPFPSRLGDPAEYAHLVQAIIENPFLNGEVIRLDGAIRMQP
